# Library screening results

Amino acid sequences for entries named in this document (tags omitted).
UniProt E9BF75, entry or part of it: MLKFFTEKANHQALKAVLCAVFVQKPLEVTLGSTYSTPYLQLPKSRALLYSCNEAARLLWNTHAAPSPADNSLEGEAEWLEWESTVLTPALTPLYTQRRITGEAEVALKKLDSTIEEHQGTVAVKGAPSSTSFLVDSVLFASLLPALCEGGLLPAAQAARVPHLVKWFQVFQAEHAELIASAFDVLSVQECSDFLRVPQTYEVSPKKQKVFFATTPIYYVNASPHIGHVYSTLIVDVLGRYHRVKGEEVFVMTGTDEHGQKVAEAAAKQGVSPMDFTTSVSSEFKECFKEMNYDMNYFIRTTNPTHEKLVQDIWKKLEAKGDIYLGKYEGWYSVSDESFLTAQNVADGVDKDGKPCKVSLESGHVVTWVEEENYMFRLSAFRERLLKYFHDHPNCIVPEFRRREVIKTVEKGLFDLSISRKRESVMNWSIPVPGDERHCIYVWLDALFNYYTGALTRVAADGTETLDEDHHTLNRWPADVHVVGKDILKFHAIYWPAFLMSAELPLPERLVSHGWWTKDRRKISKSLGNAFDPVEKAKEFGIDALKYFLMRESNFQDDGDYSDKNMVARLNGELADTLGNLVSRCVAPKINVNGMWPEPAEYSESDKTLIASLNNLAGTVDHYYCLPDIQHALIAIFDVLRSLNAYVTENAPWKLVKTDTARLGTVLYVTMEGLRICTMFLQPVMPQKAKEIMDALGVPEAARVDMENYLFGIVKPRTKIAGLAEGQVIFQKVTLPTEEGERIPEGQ

Measurements from “University of Dundee, Small-Polar-MMV Screening Library” (2021), ChEMBL document CHEMBL3988442.

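Methionyl-tRNA synthetase (putative), Leishmania donovani (UniProt E9BF75). Primary screen of methionyl-tRNA synthetase; the read-out is not stated. The test concentration is not given. The values are filed as inhibition. Of about 68,000 compounds tested this way, about 24 (0.035%) reached 50% or more in at least one test.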

All values are in %.
The controls that fix the scale are not given in the record; negative values are as filed.
The compounds are a random part of those screened.

For CC(NC(=O)N1CCC(n2cncn2)CC1)c1ccc(F)cc1F (centres unmarked) the result was 4.225%. Cc1ccc(C)c(NC(=O)Nc2c[nH]c(=O)[nH]c2=O)c1 gave 12.75%. For COCCC(=O)N1CC[C@H]2C(=O)N(c3ccsc3)CCO[C@H]2C1 the result was 5.764%. CC(=O)NCC(=O)N1Cc2nccn2CC(CN2CCCC2=O)C1 (centres unmarked) read 14.29%. COc1cc(-c2nc(CN(CCO)CCO)c(C)o2)ccc1F read 16.72%. Result for Cc1ncc(CN2CCN(C(=O)N(C)C)[C@@H]3CS(=O)(=O)C[C@@H]32)cn1 was 11.26%.

CSCC[C@H](NC(=O)CCn1ccc2c(Cl)cccc21)C(=O)O gave 13.03%. Result for CCC(=O)N1CCC2(CC1)C(=O)N(Cc1cccnc1)CCN2C was 14.57%. For Cn1nnc2c(N3CC(C(=O)NCc4ccccc4F)C3)ncnc21 the result was 14.93%. For Cc1nc(CN2CCCC(N(C)CC3(O)CCCCC3)C2)no1 (centres unmarked) the result was 26.26%. For COc1ccc(CNC(=O)NC2CCN(CC(F)F)CC2)cc1C the result was 13.75%. CNC(=O)[C@H]1C[C@@H]2CN(Cc3ccc(OC)cc3)C[C@H]1O2 read 11.54%.

CC(=O)c1cccc(NCC(=O)NC(N)=O)c1 gave -23.92%. Result for CC(C)(C)NC(=O)NC(=O)CNc1c(F)cccc1N1CCCC1 was 8.732%. With Cc1nc(CN2CCC3(CCN(C(=O)c4ccoc4C)CC3)C2)cs1 the screen gave 4.301%. With CC(=O)N[C@@H]1CN(C(=O)c2ccoc2)C[C@H]1c1ccc(C)cc1 the screen gave 8.052%. Cc1nn(C)cc1-c1cc(C(=O)N2CCc3ncc(Cl)cc3C2)on1 gave 7.764%. With O=C1CCC(=O)N1CCN1CCC(=Cc2ccccc2)CC1 the screen gave 24.05%.

With CSC(C)C(=O)NS(=O)(=O)CCc1ccccc1 (centres unmarked) the screen gave 0.8065%. With O=C(Nc1cccnc1)[C@H]1C[C@@H]2CN(C(=O)NC3CCCC3)C[C@H]1O2 the screen gave 15.82%. CN(C)C[C@@H]1C[C@@H]2CN(C(=O)Cc3cccs3)CC[C@@H]2N1C gave 4.808%. For Cn1ccnc1CN1CCC2(CC1)CC(Nc1ccccn1)CO2 (centres unmarked) the result was 13.48%. Result for COc1ccc(CN2CCCCCC2c2cccs2)c(OC)c1 (centres unmarked) was 7.887%. For Cc1ccnc(CC(C)N(C)c2cc(CCN)nc(C)n2)c1 (centres unmarked) the result was 13.02%.

CC(c1nccs1)n1cc(-c2cc(CN3CCCCC3)cs2)nn1 (centres unmarked) read 14.71%. Cn1ccc(C(=O)N2CCCC(c3cc(O)n(C)n3)C2)n1 (centres unmarked) gave -7.292%. For CCc1noc(C)c1C(=O)NCC(c1ccc(C)cc1)N(C)C (centres unmarked) the result was 12.38%. With CC1COCCN1C(=O)Cc1cc(Cl)c2c(c1)OCCO2 (centres unmarked) the screen gave 5.962%. Cc1nc(CN2CCCC(N(C)c3ccc(C#N)cn3)C2)no1 (centres unmarked) gave 4.167%. CCN(c1ccc(C(=O)N2CCCC(C)C2)cc1)S(=O)(=O)CC (centres unmarked) read 1.77%.

O=C(Nc1cnccn1)[C@@H]1CC[C@@H]2[C@@H](CCN2Cc2nccs2)O1 read 11.04%. Result for Cc1ncoc1C(=O)N1CCCC(C(=O)c2cccc(OC(C)C)c2)C1 (centres unmarked) was 1.567%. Result for CCc1ccc(C(COC)NC(=O)c2ccc(NC(C)=O)cc2)o1 (centres unmarked) was -12.66%. Cc1cc(C(C)(O)CNC(=O)OC(C)(C)C)c(C)o1 (centres unmarked) gave 15.22%. Result for COC(=O)CCN(CC1CCOC1)C1CC1 (centres unmarked) was 9.42%. Cc1cccc(S(=O)(=O)N2Cc3nccn3CC(CN(C)C)C2)c1 (centres unmarked) read 12.32%.

Result for c1cc(C2CCN(c3cnccn3)CC2)ccn1 was 6.604%. For CCn1ccnc1CN1CCN(Cc2ccccn2)CC1C (centres unmarked) the result was 8.571%. CCc1nc(CC(=O)N2CCn3c(CC)nnc3C2)cs1 gave 14.74%. Cc1[nH]ncc1C(=O)N1CCCN(Cc2nccn2C(C)C)CC1 gave 19.2%. With Cc1ccc(CNC(=O)c2cc(C)n(C)n2)o1 the screen gave -14.32%. For Cc1cc(-c2cnc(NC3CC3)nc2-c2ccoc2)on1 the result was 0.5208%.

O=C(c1cccnn1)N1C[C@@H]2CC[C@H](Oc3cccc(F)c3)[C@@H]2C1 read 9.061%. For CCC(CNC(=O)c1cc(CC(C)C)nn1C)N(C)CC (centres unmarked) the result was 10.21%. Cc1nnc(CN(Cc2cccc(Br)c2)C2CC2)o1 gave 4.485%. Result for CC(C)c1cc(N(C)Cc2noc(C3CCCC3)n2)n2nccc2n1 was 7.161%. Result for Cc1oc(C(=O)O)cc1S(=O)(=O)Nc1cccc(Cl)c1F was 4.274%. For Cc1c(Cl)cccc1S(=O)(=O)N1C[C@@H]2CC[C@H](C1)N(C)C2=O the result was 3.75%.

For CC(C)c1nn2c(-c3cnn(C)c3)nnc2s1 the result was -4.974%. With CN(C)C(=O)Cn1ccc2cc(NC(=O)N3CCSCC3)ccc21 the screen gave 13.97%. COCCNC(=O)Nc1ccn(-c2cccc(C(F)(F)F)c2)n1 gave 10.47%. CCc1nccc(CN2CCC(CNC(=O)Nc3ccccc3)C2)n1 (centres unmarked) gave 6.689%. Cc1nc2c(c(=O)n1C)CN(C(=O)C1CCCN(CC(N)=O)C1)C2 (centres unmarked) read -1.446%. CC(=O)NCc1ccc(C(=O)N2CCCc3c(F)ccc(C)c32)cc1 read 13.68%.

For CC(C)Oc1ncccc1CNC(=O)N1CCC1c1ccccc1 (centres unmarked) the result was 8.163%.

The first 3 entries again:

| structure | Inhibition |
|---|---|
| `CC(NC(=O)N1CCC(n2cncn2)CC1)c1ccc(F)cc1F` (centres unmarked) | 4.225% |
| `Cc1ccc(C)c(NC(=O)Nc2c[nH]c(=O)[nH]c2=O)c1` | 12.75% |
| `COCCC(=O)N1CC[C@H]2C(=O)N(c3ccsc3)CCO[C@H]2C1` | 5.764% |